± gives the standard deviation. This is a selection; strong and weak results do not stand in their true shares. Many entries were measured with a wide error.
Tested on: MILI (PIWIL2) piRISC loaded with L1MC piRNA (26 nt)
Experiment: pre-steady-state target cleavage rate (min^-1); MIWI and MILI are mouse PIWI proteins and EfPiwi is from a freshwater sponge; tags in brackets are library labels; higher = faster piRNA-guided slicing of the target
Conditions: guide: L1MC piRNA 5'p-UAACUAAAUACUAUGCAAGCUGUAGG; auxiliary factor: none (no GTSF1)
Procedure, shortened: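 Cleave-'n-Seq: 1 nM active affinity-purified piRISC with one synthetic guide and 0.1 nM transcribed, DNA-blocked target RNA library were mixed, with or without 500 nM GTSF1 partner protein, in HEPES–potassium acetate buffer at 33 °C for 0–8 or 0–960 min. Uncleaved targets were sequenced and normalised to depth and to weakly complementary targets, three trials were pooled, and k3 was capped at 0.0001 min^-1. The pre-steady-state cleavage rate was fitted […].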

| Sequence | pre-steady-state target cleavage rate |
| --- | --- |
| UCCUCCUUCAGCUUCCAUAGUAUUUAGUUA | 0.00105 ± 0.0056 |
| UCCUGGAUCAGCUUGCAUAGUAUAUAGAUA | 0.00156 ± 0.0041 |
| UCCUGGAUGAGCUUGCAUACUAUUUACUUA | 0.000223 ± 0.019 |
| UCCUGGAACAGCUUGCUAAGUAUUUAGUAA | 0.00163 ± 0.0034 |
| UCCUGGUACAGCUUGCAUAGUUUUUAGAUA | 0.00325 ± 0.0039 |
| UCCUGGUACAGCUUGCUUAGAAUUUAGUUA | 0.00372 ± 0.0043 |
| UCCUGCUACAGCUUGCAUAGUAUUUAGUGUA | 0.00266 ± 0.0042 |
| UCCUGGAACAGCUUGCAUAGUAUUAUCAAA | 0.00115 ± 0.0055 |
| UCCUGCUACAGCUUGCAUAGAAUUUUGUUA | 0.00145 ± 0.0056 |
| UCCUGGAACAGCUUGCGAUAGUAUUUAGUUA | 0.000566 ± 0.01 |
| UCCUGCUACAGCUUGCAUAGUAUUUUCUUA | 0.00144 ± 0.0058 |
| UCCUCCUACAGCUUGCAUUGUAUUUAGAAA | 0.00137 ± 0.004 |
| UCCUGGAACAGCUUGCAUAGAAUUUAGAUA | 0.000883 ± 0.0053 |
| UCCUGCUUGAGCUUGCAUAGUAUUUAGAAA | 0.00152 ± 0.0039 |

Quoted at random: two records from the list

| Sequence | pre-steady-state target cleavage rate |
| --- | --- |
| UCCUGGUACAGCUUGCAUAGUUUUUAGAUA | 0.00325 ± 0.0039 |
| UCCUGCUUGAGCUUGCAUAGUAUUUAGAAA | 0.00152 ± 0.0039 |
